Measurements reported in PMC4489722.
No constants are given. Whether binding was seen depends on the method and setting. In cells and extracts the contact can be indirect. Some entries that bind do so weakly or less than the wild type.

Amino acid sequences for entries named in this document (tags omitted).
UniProt Q86WV6: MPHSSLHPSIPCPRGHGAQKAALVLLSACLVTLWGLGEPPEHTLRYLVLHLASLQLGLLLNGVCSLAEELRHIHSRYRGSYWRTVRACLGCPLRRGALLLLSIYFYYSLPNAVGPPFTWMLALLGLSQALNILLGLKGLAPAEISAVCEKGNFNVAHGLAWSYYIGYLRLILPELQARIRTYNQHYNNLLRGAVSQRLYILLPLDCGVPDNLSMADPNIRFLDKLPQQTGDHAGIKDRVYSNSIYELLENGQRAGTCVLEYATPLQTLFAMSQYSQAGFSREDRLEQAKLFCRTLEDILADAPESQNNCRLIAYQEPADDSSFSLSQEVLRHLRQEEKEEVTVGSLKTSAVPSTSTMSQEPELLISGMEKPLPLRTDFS
UniProt Q16666: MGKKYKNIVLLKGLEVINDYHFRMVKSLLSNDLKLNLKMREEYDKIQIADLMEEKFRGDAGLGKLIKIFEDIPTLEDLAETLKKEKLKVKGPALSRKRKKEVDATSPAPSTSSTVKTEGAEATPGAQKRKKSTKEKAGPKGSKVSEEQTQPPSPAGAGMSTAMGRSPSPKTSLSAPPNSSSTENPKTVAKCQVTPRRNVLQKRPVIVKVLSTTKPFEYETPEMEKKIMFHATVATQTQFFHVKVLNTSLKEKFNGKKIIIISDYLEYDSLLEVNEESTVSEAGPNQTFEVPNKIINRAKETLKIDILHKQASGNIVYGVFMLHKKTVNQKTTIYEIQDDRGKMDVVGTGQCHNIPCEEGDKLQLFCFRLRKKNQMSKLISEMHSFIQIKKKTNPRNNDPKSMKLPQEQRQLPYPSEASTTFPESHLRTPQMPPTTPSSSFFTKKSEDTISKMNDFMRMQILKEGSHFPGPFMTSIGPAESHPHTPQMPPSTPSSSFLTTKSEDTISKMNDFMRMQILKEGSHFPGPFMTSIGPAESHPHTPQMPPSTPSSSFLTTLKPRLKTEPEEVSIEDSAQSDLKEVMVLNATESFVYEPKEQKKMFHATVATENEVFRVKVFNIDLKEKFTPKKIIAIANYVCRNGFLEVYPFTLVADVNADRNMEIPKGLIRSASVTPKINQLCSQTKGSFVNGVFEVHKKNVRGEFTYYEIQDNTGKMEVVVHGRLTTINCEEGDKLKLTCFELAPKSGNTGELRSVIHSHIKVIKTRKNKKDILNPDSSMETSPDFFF
UniProt Q09472: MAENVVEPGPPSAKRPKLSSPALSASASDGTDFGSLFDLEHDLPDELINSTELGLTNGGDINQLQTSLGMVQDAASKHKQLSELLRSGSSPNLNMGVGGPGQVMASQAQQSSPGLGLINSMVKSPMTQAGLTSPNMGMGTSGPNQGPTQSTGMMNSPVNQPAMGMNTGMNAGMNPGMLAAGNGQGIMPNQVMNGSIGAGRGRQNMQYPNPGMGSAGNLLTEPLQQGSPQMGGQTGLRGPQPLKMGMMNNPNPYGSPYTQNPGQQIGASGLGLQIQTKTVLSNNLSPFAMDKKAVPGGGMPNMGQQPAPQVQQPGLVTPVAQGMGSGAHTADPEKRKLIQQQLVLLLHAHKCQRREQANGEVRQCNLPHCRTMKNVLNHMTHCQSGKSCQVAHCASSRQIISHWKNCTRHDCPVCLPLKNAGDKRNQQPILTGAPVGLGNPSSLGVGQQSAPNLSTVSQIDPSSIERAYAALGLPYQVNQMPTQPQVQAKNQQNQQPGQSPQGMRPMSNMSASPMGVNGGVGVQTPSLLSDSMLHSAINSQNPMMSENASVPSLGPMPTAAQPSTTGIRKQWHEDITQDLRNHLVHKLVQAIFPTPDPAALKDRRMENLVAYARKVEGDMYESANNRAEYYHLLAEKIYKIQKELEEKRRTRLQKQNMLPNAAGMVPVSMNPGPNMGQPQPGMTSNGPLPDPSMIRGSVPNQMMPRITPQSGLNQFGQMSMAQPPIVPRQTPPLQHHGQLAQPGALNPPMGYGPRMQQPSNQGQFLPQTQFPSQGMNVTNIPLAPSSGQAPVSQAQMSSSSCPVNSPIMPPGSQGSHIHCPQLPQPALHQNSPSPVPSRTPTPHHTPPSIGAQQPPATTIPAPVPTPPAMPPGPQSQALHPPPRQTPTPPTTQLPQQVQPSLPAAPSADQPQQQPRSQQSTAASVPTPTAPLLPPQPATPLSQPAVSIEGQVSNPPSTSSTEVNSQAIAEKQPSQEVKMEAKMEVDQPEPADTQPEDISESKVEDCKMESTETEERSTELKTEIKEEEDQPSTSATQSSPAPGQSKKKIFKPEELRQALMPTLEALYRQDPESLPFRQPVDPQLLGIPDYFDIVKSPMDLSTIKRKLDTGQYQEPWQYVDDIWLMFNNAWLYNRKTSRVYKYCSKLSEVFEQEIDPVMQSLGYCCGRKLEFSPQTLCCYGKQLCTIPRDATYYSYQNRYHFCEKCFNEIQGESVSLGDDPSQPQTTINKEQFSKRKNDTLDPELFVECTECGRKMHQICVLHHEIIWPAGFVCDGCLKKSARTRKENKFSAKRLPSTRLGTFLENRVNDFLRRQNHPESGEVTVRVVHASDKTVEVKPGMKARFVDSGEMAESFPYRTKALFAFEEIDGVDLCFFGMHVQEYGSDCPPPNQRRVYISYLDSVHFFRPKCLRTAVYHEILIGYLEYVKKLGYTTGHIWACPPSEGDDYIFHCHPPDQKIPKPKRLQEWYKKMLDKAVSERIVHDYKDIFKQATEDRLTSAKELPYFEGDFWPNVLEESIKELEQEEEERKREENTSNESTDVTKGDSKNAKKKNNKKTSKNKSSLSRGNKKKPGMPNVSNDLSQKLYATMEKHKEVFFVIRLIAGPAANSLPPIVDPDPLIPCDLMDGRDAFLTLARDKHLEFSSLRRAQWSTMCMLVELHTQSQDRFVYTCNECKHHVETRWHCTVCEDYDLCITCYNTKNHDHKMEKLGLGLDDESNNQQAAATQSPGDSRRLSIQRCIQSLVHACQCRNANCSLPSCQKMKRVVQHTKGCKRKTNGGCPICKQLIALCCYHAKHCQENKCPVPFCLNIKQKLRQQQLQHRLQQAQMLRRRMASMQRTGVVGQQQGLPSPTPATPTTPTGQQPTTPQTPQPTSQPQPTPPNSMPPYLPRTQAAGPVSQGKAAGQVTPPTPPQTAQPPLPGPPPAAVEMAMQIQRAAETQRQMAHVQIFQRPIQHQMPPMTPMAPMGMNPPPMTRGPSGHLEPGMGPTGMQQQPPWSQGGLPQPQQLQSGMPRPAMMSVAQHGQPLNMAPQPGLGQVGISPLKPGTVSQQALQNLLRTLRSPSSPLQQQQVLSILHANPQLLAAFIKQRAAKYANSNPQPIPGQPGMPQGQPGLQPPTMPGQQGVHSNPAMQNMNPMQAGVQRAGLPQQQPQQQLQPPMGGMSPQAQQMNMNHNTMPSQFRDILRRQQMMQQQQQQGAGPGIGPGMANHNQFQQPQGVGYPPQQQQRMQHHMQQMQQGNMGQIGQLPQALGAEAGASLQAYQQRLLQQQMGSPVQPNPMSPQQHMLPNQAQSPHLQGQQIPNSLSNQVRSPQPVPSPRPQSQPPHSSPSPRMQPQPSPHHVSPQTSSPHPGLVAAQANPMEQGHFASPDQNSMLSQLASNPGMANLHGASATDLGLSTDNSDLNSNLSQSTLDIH

Key:
[1] = target: STING (human (endogenous in HMVEC-d, HFF)) (UniProt Q86WV6); assay: co-IP; endogenous proteins, HFF whole cell lysates in NETN buffer, HSV-1 infected (1 PFU/cell; 30 min and 6 h p.i.); IP anti-STING, western blot for IFI16 and IRF-3
[2] = target: gamma-interferon-inducible protein 16 (IFI16) (human (endogenous in HMVEC-d, HFF, BCBL-1, BJAB)) (UniProt Q16666); assay: cross-linking
[3] = target: STING (human (endogenous in HMVEC-d, HFF)) (UniProt Q86WV6); assay: co-IP; endogenous proteins, HMVEC-d whole cell lysates in NETN buffer, uninfected or KSHV infected (30 min to 24 h p.i.); untreated, Leptomycin B treated or Si-control cells; IP with anti-Ran, -ASC, -caspase-1, -p300 or -STING antibody at 4°C, western blot for IFI16
[4] = target: histone acetyltransferase p300 (human (endogenous in HMVEC-d)) (UniProt Q09472); assay: as above

Measured: binding

gamma-interferon-inducible protein 16 (IFI16) (from UniProt Q16666 1-785)
binds: all assays above
